The values below come from paper PMC8761496.

These are yes or no findings as the source states them, for the method shown. In cells and extracts the contact can be indirect. Binding can be weak; no strength is given. Sequences can lack the tags named with a protein.

The target of one experiment is T1, Chl1-Myc (S. cerevisiae) (UniProt P22516).
T1 sequence: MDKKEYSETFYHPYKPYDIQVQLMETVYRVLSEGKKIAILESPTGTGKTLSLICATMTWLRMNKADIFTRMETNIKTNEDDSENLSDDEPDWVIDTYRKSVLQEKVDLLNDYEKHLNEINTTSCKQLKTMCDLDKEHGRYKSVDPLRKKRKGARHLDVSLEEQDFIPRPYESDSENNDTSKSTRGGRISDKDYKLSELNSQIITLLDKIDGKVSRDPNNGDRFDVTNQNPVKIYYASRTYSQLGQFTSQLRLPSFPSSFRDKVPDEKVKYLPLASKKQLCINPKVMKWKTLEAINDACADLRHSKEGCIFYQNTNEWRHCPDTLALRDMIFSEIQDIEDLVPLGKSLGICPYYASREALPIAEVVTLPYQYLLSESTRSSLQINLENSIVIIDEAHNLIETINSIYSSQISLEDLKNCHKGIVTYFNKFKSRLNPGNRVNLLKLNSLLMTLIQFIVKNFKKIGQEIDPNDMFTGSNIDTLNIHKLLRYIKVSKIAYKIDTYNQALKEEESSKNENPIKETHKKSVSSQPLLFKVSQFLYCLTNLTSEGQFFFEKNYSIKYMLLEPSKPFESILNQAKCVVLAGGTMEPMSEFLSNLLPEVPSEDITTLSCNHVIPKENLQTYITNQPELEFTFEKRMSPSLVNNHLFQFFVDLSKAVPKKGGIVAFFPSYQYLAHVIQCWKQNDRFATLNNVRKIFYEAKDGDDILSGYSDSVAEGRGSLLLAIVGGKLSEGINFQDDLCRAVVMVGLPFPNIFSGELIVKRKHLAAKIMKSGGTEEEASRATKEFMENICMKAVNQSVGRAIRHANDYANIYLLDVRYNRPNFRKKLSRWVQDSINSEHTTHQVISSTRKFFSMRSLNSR
Nature of the experiment: co-IP; extracts of ground frozen yeast cells in lysis buffer (100 mM HEPES-KOH pH 7.9, 50 mM potassium acetate, 10 mM magnesium acetate, 2 mM EDTA); Dynabeads with anti-Myc (9B11) or anti-HA (HA-7), IgG only as control; blots probed for Myc and HA; cells synchronized in G1 and released in 0.2 M HU for 40 min, or released at 20°C for 25 min (unperturbed).

The target of experiment [1] is DNA polymerase α (Pol α)-HA (S. cerevisiae). Described as above.

On to “DNA polymerase α (Pol α)-HA (S. cerevisiae)”, for which, in the experiment with Chl1-Myc (S. cerevisiae), the binding result is reported as “binds”.

B1: Chl1-Myc (protein, UniProt P22516 1-861)
chain: MDKKEYSETFYHPYKPYDIQVQLMETVYRVLSEGKKIAILESPTGTGKTLSLICATMTWLRMNKADIFTRMETNIKTNEDDSENLSDDEPDWVIDTYRKSVLQEKVDLLNDYEKHLNEINTTSCKQLKTMCDLDKEHGRYKSVDPLRKKRKGARHLDVSLEEQDFIPRPYESDSENNDTSKSTRGGRISDKDYKLSELNSQIITLLDKIDGKVSRDPNNGDRFDVTNQNPVKIYYASRTYSQLGQFTSQLRLPSFPSSFRDKVPDEKVKYLPLASKKQLCINPKVMKWKTLEAINDACADLRHSKEGCIFYQNTNEWRHCPDTLALRDMIFSEIQDIEDLVPLGKSLGICPYYASREALPIAEVVTLPYQYLLSESTRSSLQINLENSIVIIDEAHNLIETINSIYSSQISLEDLKNCHKGIVTYFNKFKSRLNPGNRVNLLKLNSLLMTLIQFIVKNFKKIGQEIDPNDMFTGSNIDTLNIHKLLRYIKVSKIAYKIDTYNQALKEEESSKNENPIKETHKKSVSSQPLLFKVSQFLYCLTNLTSEGQFFFEKNYSIKYMLLEPSKPFESILNQAKCVVLAGGTMEPMSEFLSNLLPEVPSEDITTLSCNHVIPKENLQTYITNQPELEFTFEKRMSPSLVNNHLFQFFVDLSKAVPKKGGIVAFFPSYQYLAHVIQCWKQNDRFATLNNVRKIFYEAKDGDDILSGYSDSVAEGRGSLLLAIVGGKLSEGINFQDDLCRAVVMVGLPFPNIFSGELIVKRKHLAAKIMKSGGTEEEASRATKEFMENICMKAVNQSVGRAIRHANDYANIYLLDVRYNRPNFRKKLSRWVQDSINSEHTTHQVISSTRKFFSMRSLNSR
With B1, in experiment [1], the binding entry is “binds”.
